PubChem BioAssay AID1159597 | NIAID | 2016

- Test: 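Knock-downs that change TNF-alpha promoter reporter output after LPS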
- Cell system: human THP-1 B5 reporter clone (monocytic leukaemia line), PMA-differentiated to macrophage-like cells
- Knock-down reagent: single siRNA against human genes
- Time to read-out: LPS for 4 h before read-out; assayed 48 to 72 h after siRNA transfection
- Treatment: LPS (Salmonella minnesota R595) for 4 h; concentration not given
- Read-out: 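After 4 h LPS, firefly TNF promoter luciferase over renilla, as a plate median/MAD robust z-score averaged across replicates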
- Scale: TNF reporter z-score: higher = stronger TNF promoter activity after LPS
- Hit rule: In these data the active calls have TNF reporter z-score, replicate mean at about -1.5 or lower, or at about 1.53 or higher
- Meaning of the calls: active = clear shift in reporter, either direction; inactive = little shift in reporter
The whole screen tested 756 reagents; below is an unselected part. Of all reagents, 140 (19%) got an active call. 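Calls mark clear shifts in either direction, lowered or raised; calls are per siRNA, gene-level medians over six siRNAs not deposited.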 Reagents against one gene are numbered here. No sequences are given here. The record does not give: the amount of reagent.

TNF reporter z-score, replicate mean, by target gene and reagent
TIRAP: #1 -3.69 active; #2 -3.2 active; #3 -3.91 active; #4 -0.52 inactive; #5 -0.503 inactive; #6 -2.54 active
ATF2: #1 -2.17 active; #2 0.0387 inactive; #3 -0.321 inactive; #4 -0.272 inactive; #5 -0.802 inactive; #6 -1.57 active
CREBBP: #1 1.81 active; #2 0.728 inactive; #3 0.685 inactive; #4 -0.0143 inactive; #5 -0.216 inactive; #6 0.189 inactive
REL: #1 -1.06 inactive; #2 -0.79 inactive; #3 0.13 inactive; #4 -0.492 inactive; #5 -0.197 inactive; #6 -0.654 inactive
IRAK1: #1 -0.606 inactive; #2 -3.26 active; #3 -1.72 active; #4 -0.964 inactive; #5 -1.42 inactive; #6 -2.12 active
IRF9: #1 -1.17 inactive; #2 -1.25 inactive; #3 -0.209 inactive; #4 -1.63 active; #5 -0.789 inactive; #6 -0.798 inactive
TLR8: #1 -0.467 inactive; #2 1.03 inactive; #3 -0.289 inactive; #4 -0.929 inactive; #5 -0.702 inactive; #6 -0.106 inactive
AKT1: #1 0.287 inactive; #2 -0.684 inactive; #3 -1.14 inactive; #4 -0.931 inactive; #5 0.141 inactive; #6 -0.868 inactive
MAP2K1: #1 -0.661 inactive; #2 -0.0786 inactive; #3 -1.42 inactive; #4 0.0931 inactive; #5 0.261 inactive; #6 0.544 inactive
TBK1: #1 -1.11 inactive; #2 0.22 inactive; #3 0.151 inactive; #4 0.923 inactive; #5 -0.00024 inactive; #6 -0.32 inactive
EP300: #1 -0.695 inactive; #2 0.00515 inactive; #3 0.609 inactive; #4 -0.273 inactive; #5 0.404 inactive; #6 0.287 inactive
TRAF6: #1 -1.79 active; #2 -3.16 active; #3 -2.11 active; #4 -1.34 inactive; #5 -1.9 active; #6 -1.82 active
RELB: #1 -1.1 inactive; #2 0.144 inactive; #3 0.215 inactive; #4 -1.18 inactive; #5 -0.374 inactive; #6 -0.568 inactive

Part of the list above in another layout.
TLR8 #6 → TNF reporter z-score, replicate mean: -0.106; outcome: inactive
AKT1 #1 → TNF reporter z-score, replicate mean: 0.287; outcome: inactive
AKT1 #2 → TNF reporter z-score, replicate mean: -0.684; outcome: inactive
AKT1 #3 → TNF reporter z-score, replicate mean: -1.14; outcome: inactive
AKT1 #4 → TNF reporter z-score, replicate mean: -0.931; outcome: inactive
AKT1 #5 → TNF reporter z-score, replicate mean: 0.141; outcome: inactive
AKT1 #6 → TNF reporter z-score, replicate mean: -0.868; outcome: inactive
MAP2K1 #1 → TNF reporter z-score, replicate mean: -0.661; outcome: inactive
MAP2K1 #2 → TNF reporter z-score, replicate mean: -0.0786; outcome: inactive
MAP2K1 #3 → TNF reporter z-score, replicate mean: -1.42; outcome: inactive
MAP2K1 #4 → TNF reporter z-score, replicate mean: 0.0931; outcome: inactive
MAP2K1 #5 → TNF reporter z-score, replicate mean: 0.261; outcome: inactive
